Values of other authors in patent US20250186443A1, “VALACYCLOVIR AND CELECOXIB IN COMBINATION WITH NIRMATRELVIR AND RITONAVIR FOR THE TREATMENT OF COVID-19” (priority 2023, published 2025).
At least one compound was matched to its structure with a doubt left.

Test system: herpes viral reactivation
Settings: nervous system of mice

## Cc1ccc(-c2cc(C(F)(F)F)nn2-c2ccc(S(N)(=O)=O)cc2)cc1 [celecoxib]
  suppression of hyperthermic stress-induced herpes viral reactivation: can suppress
